Assay results as given in publication PMC7819943, “Rice protein-binding microarrays: a tool to detect cis-acting elements near promoter regions in rice”.
The other results are listed elsewhere or left out.

Sequences of proteins named here, by UniProt entry; tags and fusion partners are left off.
UniProt Q0JBA9, entry or part of it: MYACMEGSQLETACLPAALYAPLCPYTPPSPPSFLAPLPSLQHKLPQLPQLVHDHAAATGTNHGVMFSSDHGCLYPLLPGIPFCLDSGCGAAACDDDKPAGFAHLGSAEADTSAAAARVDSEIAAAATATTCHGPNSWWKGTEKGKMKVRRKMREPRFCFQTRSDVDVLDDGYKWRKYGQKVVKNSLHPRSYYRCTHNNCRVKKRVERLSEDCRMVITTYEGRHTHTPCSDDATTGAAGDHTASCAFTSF

target: OsWRKY34 (Oryza sativa, UniProt Q0JBA9 1-250); experiment: protein-binding microarray (RPBM); PBS, 2% BSA, 51.3 ng/ul salmon testes DNA, 50 uM zinc acetate, 200 nM TF, 25 C, 1 h; high values mean tight binding; settings: protein: recombinant; tags: N-terminal polyhistidine and DsRed monomer fusion (pET32a); label: CyDye5-dUTP incorporated in the synthesized complementary strand; 3' TTTTT single-stranded linker to array surface; dsDNA, one strand shown
In short: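 Binding signal is defined as the fluorescence intensity of each feature in arbitrary units, read on an Axon 4000B scanner. Transcription factors with N-terminal polyhistidine and DsRed fusions came from E. coli BL21-CodonPlus and were purified on Ni–NTA. They were incubated at 200 nM for 1 h at 25 °C on a custom Agilent array that had been made double-stranded with Cy5-dUTP, with 50 µM zinc acetate present, and the array was washed.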

In order of rising binding signal:
1. TCTCTCTGTAATTTTGGTTTGATGCCAATTATCGGCTTACCGGAGTCACCTAGTGCAG  8040 fluorescence intensity (a.u.)
2. TTCATACTCTTACTATGTCCTGTTCTTGTCTTCAACAAAACGGAGTCACCTAGTGCAG  8090 fluorescence intensity (a.u.)
3. CGTGCTCCTCCTACCCATCAGCCCATTGCCCCGCGTCGCTCGGAGTCACCTAGTGCAG  8120 fluorescence intensity (a.u.)
4. TAATGACTTATCCTGCGGTGAAAAATCTTCATCTTCGTATCGGAGTCACCTAGTGCAG  8160 fluorescence intensity (a.u.)
5. CCCAGCCGCACCAGATCCCATCCCTTCTCTTCTTCTTCTCCGGAGTCACCTAGTGCAG  8170 fluorescence intensity (a.u.)
6. GGTTGGCTTCTTCTCGGTTTGTTCGTTCCTTGTGGTCGAGCGGAGTCACCTAGTGCAG  8240 fluorescence intensity (a.u.)
7. GACCATTATACGCGGTTGCCTACATAGCCTCAAATTATGTCGGAGTCACCTAGTGCAG  8260 fluorescence intensity (a.u.)
8. TGTTACATGTTTAATAGTGTGTGTGGGTGTGTGTCTAATGCGGAGTCACCTAGTGCAG  8290 fluorescence intensity (a.u.)
9. GAGACACCGACGCGTCACACCACCACGTCCGTTTCCGTACCGGAGTCACCTAGTGCAG  8300 fluorescence intensity (a.u.)
10. CAAGCATCTCCTCTTCTCCTCTTCTTCCATCTGCAAGCTCCGGAGTCACCTAGTGCAG  8350 fluorescence intensity (a.u.)
11. GGGCTTCTTTTTGGGTCGAGAATATTTTGGGCTTAAGGGCCGGAGTCACCTAGTGCAG  8390 fluorescence intensity (a.u.)
12. GAAATCTCATCCGTTTTTTTTTGATTTGAGGTCTCCTACCCGGAGTCACCTAGTGCAG  8400 fluorescence intensity (a.u.)
13. AATTTTATGGAATTCACTCATTTTTTCTCATTGAGAATTTCGGAGTCACCTAGTGCAG  8540 fluorescence intensity (a.u.)
14. ATCTAACCATGCGTCATTCACAGTTCTTCGTTCTTGTCTTCGGAGTCACCTAGTGCAG  8650 fluorescence intensity (a.u.)
15. AATGGTTGTGCTGGTATTACATCATTTTGGTGCTGAAATGCGGAGTCACCTAGTGCAG  8660 fluorescence intensity (a.u.)
16. TCAAGTTTTATGTAATGCAGATTTTACCTTTGTATTTCACCGGAGTCACCTAGTGCAG  8840 fluorescence intensity (a.u.)
17. TACTCACTTTGTTTCATAATATATTGGATATGTTTTTCTTCGGAGTCACCTAGTGCAG  8850 fluorescence intensity (a.u.)
18. CCGATTGGACCCGTGACGTCCTTGCGCGCGTGATTTGCCACGGAGTCACCTAGTGCAG  8860 fluorescence intensity (a.u.)
19. TACTCTTAATCCCTCTATCTGTTAGTAGATACTCCATCCACGGAGTCACCTAGTGCAG  8890 fluorescence intensity (a.u.)
20. AACTCTAATTTACTGTTGGTTGGTGCAATATCAGATGGATCGGAGTCACCTAGTGCAG  8900 fluorescence intensity (a.u.)
21. CAAACGTTGCCGATCTCAATCTCGAGGGGTTTTCTTTCCTCGGAGTCACCTAGTGCAG  8930 fluorescence intensity (a.u.)
22. GGTTTTGAAAGACAGGGGTTCAACATTCTGACATTACAGTCGGAGTCACCTAGTGCAG  9170 fluorescence intensity (a.u.)
23. TTTTTTTCTCCTCATTATTCTTCTTTTCTTTCTCTATATTCGGAGTCACCTAGTGCAG  9180 fluorescence intensity (a.u.)
24. CGTCAACCCTTTGCCTTTGTTAGCGAGCTAGCGTGTACACCGGAGTCACCTAGTGCAG  9190 fluorescence intensity (a.u.)
25. GGTCTTTGAAGTCCTTGTGTTCTCCATGCCCTACAAATGACGGAGTCACCTAGTGCAG  9210 fluorescence intensity (a.u.)
26. GTGTCCAAGTCCAACTCCGCCTCTTCCACGCTTCGGCTTCCGGAGTCACCTAGTGCAG  9220 fluorescence intensity (a.u.)
27. CCTCGTCGCGCTTGAGCTCCGCCCGCCACGGCCACGCGCCCGGAGTCACCTAGTGCAG  9230 fluorescence intensity (a.u.)
28. CTGCTCGGAGCACACACAACCACCACTCACCACCAACATGCGGAGTCACCTAGTGCAG  9280 fluorescence intensity (a.u.)
29. GTCGCGGCTGAACAGAACAGGGGAGGGGCGGCGATCTCCACGGAGTCACCTAGTGCAG  9420 fluorescence intensity (a.u.)
30. GGCCTGTAGACACCTTTGTATACCTTTTTCCACATCTTAACGGAGTCACCTAGTGCAG  9440 fluorescence intensity (a.u.)
31. CACTAATGGCTGACAATTACTACTTCTGACCACTCATACTCGGAGTCACCTAGTGCAG  9490 fluorescence intensity (a.u.)
32. GCAAGAGTACTCTACTTCTGCAAGCTTATTCTTCGACTGACGGAGTCACCTAGTGCAG  9570 fluorescence intensity (a.u.)
33. CTTACGCCCGCCGATCGCTTCTCCCTCAACTCACACCCTTCGGAGTCACCTAGTGCAG  9630 fluorescence intensity (a.u.)
34. TTGAAGAGATAATTTCCCTTGTTTTGTATTTTCTTTTTCCCGGAGTCACCTAGTGCAG  9920 fluorescence intensity (a.u.)
35. GTTTCATTGAGATGGTGTCGACGTGGCGGCGTTGACTTAGCGGAGTCACCTAGTGCAG  10700 fluorescence intensity (a.u.)
36. CTACAAACACAAATTGCATATACACTCTTAGGTTCTGTATCGGAGTCACCTAGTGCAG  11000 fluorescence intensity (a.u.)
37. AACCTCATCATCCATCCCTCATCGCGGAGCTGCAACCAGTCGGAGTCACCTAGTGCAG  11100 fluorescence intensity (a.u.)
38. CTGGTAAACATTAGGCTACATATCCTTTCGCTTTTCTTCTCGGAGTCACCTAGTGCAG  11400 fluorescence intensity (a.u.)
39. TGGCTGGTGTTGAATTCATTGTGCATCCAACGGTCATTATCGGAGTCACCTAGTGCAG  11400 fluorescence intensity (a.u.)
40. GCCCACACGAAGCTTACGTACACTTCTTGGTCTCGAGCCGCGGAGTCACCTAGTGCAG  11500 fluorescence intensity (a.u.)
41. ATATCCAGTTCCTTTTCTTTTGGGGTGGTTCAAATGTCGACGGAGTCACCTAGTGCAG  11900 fluorescence intensity (a.u.)
42. TGTTGGTTTGGTGTGAAAGAGAAGAGAGAGGCTTTTGCTCCGGAGTCACCTAGTGCAG  11900 fluorescence intensity (a.u.)
